From patent US6558671B1, “Cysteine-depleted peptides recognized by A3-restricted cytotoxic lymphocytes, and uses therefor” (The University of Virginia Patent Foundation, priority 1997, dated 2003)
Some of these results come from one statement about several compounds together.

System: HLA-A1-restricted VMM15 CTL
Assay: 4-hour chromium release assay, peptide-pulsed C1R-A1 targets with VMM15 CTL
Format: cell-based, human
Details: crude synthetic peptides approximately 20 micrograms/ml, 2 hours; E:T 15:1; FIG. 6

For EKCDICTDEY, the target cell lysis was 25-40%.
